# According to PubChem BioAssay AID2685 (National Center for Advancing Translational Sciences (NCATS), 2010):
# The list shows a part of the results. The main result of the screen is listed elsewhere. These columns were measured beside it and carry no call. Compounds called inactive in the main read-out are mostly missing here. Potencies come from curve fits of mixed quality, noted in brackets.
# Test: qHTS Assay for Lipid Storage Modulators in Drosophila S3 Cells;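 as to cell number change: cells counted by Cell Tracker Red CMTPX staining in the red channel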
# Conditions: BODIPY lipid droplet fluorescence, 18-24 h; for cell number change: measured here: cell count max response, cells fed with added oleic acid
# Summary of the method: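 Drosophila S3 cells loaded with oleic acid (400 uM, as added) and compounds at several concentrations; lipid droplets imaged by 488-nm laser-scanning cytometry, 500–530 nm intensity and object ratio to cell channel. Percent activity normalized to 20 uM Triacsin C.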
# [1] = measured here: lipid fluorescence (Fed channel) AC50, cells fed with added oleic acid
# [2] = measured here: cell number channel AC50, cells fed with added oleic acid
SMILES,cell number change,AC50 [1],AC50 [2]
COC(=O)C1=C(C)NC(C)=C(C(=O)OC)C1C(=O)OCC(=O)c1ccc(Br)cc1,-7.04%,,
COc1ccc(S(=O)(=O)NC(C)C(=O)NCc2ccccn2)cc1OC (stereo not drawn),-0.855%,"0.082 µM [falling, full curve, poor fit]",
CCCc1ccc(OCC(=O)Nc2cc(S(=O)(=O)CC)ccc2O)cc1,7.03%,"0.231 µM [rising, full curve]",
CC(C)C[C@H](NC(=O)c1[nH]cnc1C(=O)Nc1ccccc1)C(=O)OC(C)(C)C,-15.9%,"2.31 µM [falling, partial curve]",
CCN(C(=O)COC(=O)CCC(=O)c1cccs1)c1c(N)n(Cc2ccccc2)c(=O)[nH]c1=O,-16%,"23.1 µM [falling, partial curve]",
COCCn1c(SCC(=O)NN2C(=O)NC(C)(c3ccccc3)C2=O)nnc1-c1ccncc1 (stereo not drawn),-4.82%,"14.6 µM [rising, partial curve]",
Cc1c(C(=O)NCc2ccccn2)sc2nc(-c3ccccc3)cn12,,"0.116 µM [rising, full curve, poor fit]","0.13 µM [rising, full curve, poor fit]"
O=Cc1ccc(OC(=O)c2cc(Cl)nc3ccccc23)cc1,-29.9%,"0.00517 µM [falling, full curve, poor fit]",
CN(CC(=O)NCCc1ccccc1)Cc1ccco1,20.8%,"16.4 µM [falling, single point]",
O=C(Nc1ccc(NC(=O)C2CCCCC2)nc1)c1ccco1,-16.5%,"6.51 µM [falling, single point]",
COc1ccc(NS(=O)(=O)c2cccc(C(=O)OCC(=O)Nc3cc(C)on3)c2)cc1,-74.6%,,
CN(CC(=O)NC1CCCCC1)S(=O)(=O)c1cccc2cccnc12,26.1%,"0.184 µM [rising, full curve, poor fit]",
CCN(CC)C(=O)c1cc2cc([N+](=O)[O-])ccc2s1,-25.1%,,"1.46 µM [falling, full curve, poor fit]"
Cc1cccc(C)c1OCCSc1n[nH]c(N)n1,79.3%,"1.84 µM [rising, partial curve]","0.164 µM [rising, full curve, poor fit]"
CCc1ccc(NC(=O)CNC(=O)c2cn(-c3ccccc3OC)c(=O)c3ccccc23)cc1,-0.879%,,
N#CC1=C(N)NC(SCC(=O)c2ccc(Br)cc2)=C(C#N)C12CCCCC2,39.9%,"1.16 µM [rising, partial curve]","0.92 µM [rising, partial curve]"
COc1ccc(S(=O)(=O)Nc2ccccc2C(=O)N2CCOCC2)cc1Cl,-33.7%,"10.3 µM [falling, partial curve, poor fit]","18.4 µM [falling, single point]"
COCCn1nnnc1C(c1ccccn1)N1CCN(c2cc(Cl)ccc2C)CC1 (stereo not drawn),13.1%,"6.51 µM [rising, single point]",
O=C(O)C1CCC(=O)N1C1c2ccccc2Oc2ccccc21 (stereo not drawn),14.3%,"0.00461 µM [falling, full curve, poor fit]",
CCCS(=O)(=O)c1nc(S(=O)(=O)c2ccc(C)cc2)c(N2CC(C)OC(C)C2)s1 (stereo not drawn),,"4.11 µM [falling, partial curve]",

# In a second layout: results already given
SMILES | cell number change | AC50 [1] | AC50 [2]
CCN(C(=O)COC(=O)CCC(=O)c1cccs1)c1c(N)n(Cc2ccccc2)c(=O)[nH]c1=O | -16% | 23.1 µM [falling, partial curve] | 
COCCn1c(SCC(=O)NN2C(=O)NC(C)(c3ccccc3)C2=O)nnc1-c1ccncc1 (stereo not drawn) | -4.82% | 14.6 µM [rising, partial curve] | 
Cc1c(C(=O)NCc2ccccn2)sc2nc(-c3ccccc3)cn12 |  | 0.116 µM [rising, full curve, poor fit] | 0.13 µM [rising, full curve, poor fit]
O=Cc1ccc(OC(=O)c2cc(Cl)nc3ccccc23)cc1 | -29.9% | 0.00517 µM [falling, full curve, poor fit] | 

# Additional structures follow.

SMILES,cell number change,AC50 [1],AC50 [2]
O=C(NC(Cc1ccccc1)C(=O)O)/C(=C/c1ccccc1)NC(=O)c1ccco1 (stereo not drawn),4.35%,"0.58 µM [falling, single point]",
c1csc(-c2cn3ccc4ccccc4c3n2)c1,-10.1%,"2.91 µM [falling, partial curve]",
CCCNC(=O)NS(=O)(=O)c1cnccc1Sc1ccc(Cl)cc1,-26.8%,"11.6 µM [falling, partial curve]",
Cc1cc(NC(=O)CCSc2ccccc2)ccc1Br,-32.9%,,"29.1 µM [falling, single point]"
O=C1CCN=C(Nc2ccc(F)cc2)N1Cc1ccccc1,-2.06%,"0.00411 µM [rising, full curve, poor fit]","5.17 µM [rising, single point]"
CCOC(=O)c1cccnc1SCC(=O)N(CC)c1cccc(C)c1,9.68%,"18.4 µM [rising, partial curve]",
O=C(/C=C/c1ccc(S(=O)(=O)N2CCOCC2)cc1)NCc1ccc(Cl)cc1,-11.3%,"0.731 µM [falling, full curve, poor fit]",
COc1ccc(C(=O)Nn2c(SCC(=O)NCC3CCCO3)nc3ccccc3c2=O)cc1 (stereo not drawn),64.9%,,"8.2 µM [rising, partial curve]"
O=C(NCc1ccccc1)/C(=C/c1ccccc1)NC(=O)c1ccco1,-7.83%,,
Cc1cccc(CCNC(=O)c2oc3c(C)c(C)ccc3c2C)n1,2.48%,,
Cc1cc(C)nc(CC(N)=O)n1,-37.6%,,"0.082 µM [falling, full curve, poor fit]"
O=C(c1cnccn1)N1CCCC(N2CCN(c3cccc(Cl)c3)CC2)C1 (stereo not drawn),35.5%,,"10.3 µM [rising, partial curve, poor fit]"
CCc1cc[n+](CC(=O)Nc2ccc(Cl)cc2Cl)cc1,-74%,"7.31 µM [falling, partial curve]","7.31 µM [falling, partial curve]"
COc1ccc(NC(=S)N(CCCN2CCOCC2)Cc2cn(C)c3ccccc23)cc1OC,16.1%,"1.46 µM [rising, partial curve]",
COc1cccc(-c2nn(C)c3sc(C(=O)N4CCOCC4)cc23)c1,-18.7%,"3.26 µM [falling, partial curve]",
O=C(O)c1ccc(-c2ccc(OS(=O)(=O)c3ccccc3F)cc2)cc1,0.833%,,
Cc1nc(SCC(=O)N2CCC(Cc3ccccc3)CC2)[nH]c(=O)c1C,26.5%,"14.6 µM [rising, partial curve]",
COc1ccc(-c2ccc(C3C(C#N)=C(N)Oc4n[nH]c(C)c43)o2)cc1 (stereo not drawn),-23.3%,"13 µM [falling, partial curve, poor fit]",
O=C(CSc1cccc2cccnc12)N/N=C/c1ccc(O)cc1,3.87%,"29.1 µM [falling, single point]",
O=C(NC1c2ccccc2-c2ccccc21)N1CCCCC1,36.2%,,"29.1 µM [rising, single point]"

SMILES,cell number change,AC50 [1],AC50 [2]
C[n+]1cnn2c1SCC1(COC1)C2,-25.1%,"4.11 µM [falling, full curve, poor fit]","0.291 µM [falling, full curve, poor fit]"
S=c1nc(NCc2cccc(Cl)c2)c2ccccc2[nH]1,7.04%,"29.1 µM [rising, single point]",
COc1ccc(C(=O)NCc2nnc(SCC(=O)Nc3ccccc3OC)o2)cc1,39.9%,,"0.0291 µM [rising, full curve]"
COc1cccc(NC(=O)CCC(=O)NCc2ccco2)c1,-73.3%,"23.1 µM [falling, partial curve]","9.2 µM [falling, partial curve]"
Cc1ccc(-c2nn(-c3ccccn3)c(=O)c3ccccc23)cc1C,3.95%,"0.82 µM [rising, single point]",
COc1cc(OC)cc(C(=O)N[C@H](C(=O)OCC(=O)NC(C)c2ccccc2)C(C)C)c1 (stereo partly drawn),-15.4%,"29.1 µM [falling, single point]",
COCCNC(=S)NNC(=O)c1cccs1,16.9%,"6.51 µM [falling, single point]",
CC(OC(=O)CCN=C1NS(=O)(=O)c2ccccc21)C(=O)c1ccccc1 (stereo not drawn),-9.24%,,
Cc1cccc(OC(C)C(=O)Nc2ccc(N3CCCCC3)cc2)c1 (stereo not drawn),4.82%,,
Cn1cnnc1SCC(=O)N1N=C2/C(=C/c3ccco3)CCCC2C1c1ccco1 (stereo not drawn),-28.8%,,
Cc1ccc(N2C(=O)CS/C2=C(\C(Cl)=C(Cl)Cl)[N+](=O)[O-])cc1,140%,"20.6 µM [falling, partial curve]","29.1 µM [rising, single point]"
O=C(COc1ccc2c3c(c(=O)oc2c1)CCCC3)NCc1ccccn1,-7.37%,,"6.51 µM [falling, single point]"
OCC#CCSc1nnc(-c2ccccc2Br)o1,67%,,"29.1 µM [rising, single point]"
Cc1cc(C(=O)N2CCCC(N3CCN(c4ccccc4C)CC3)C2)nc(C)n1 (stereo not drawn),,"29.1 µM [rising, single point]",
O=C(CCn1c(=S)[nH]c2cc3c(cc2c1=O)OCO3)NCc1cccc(Cl)c1,123%,"6.51 µM [falling, single point]","29.1 µM [rising, single point]"
COc1cc(/C=N/N=C(/N)c2nonc2N)cc(Br)c1OCc1cccc(C)c1,-67.2%,,
CC(C(=O)OCC(=O)c1ccc(Br)cc1)N1C(=O)C2C3C=CC(C3)C2C1=O (stereo not drawn),-26.2%,"29.1 µM [falling, single point]",
Fc1ccc(-c2nnc3n2CCCCC3)cc1,44.1%,"29.1 µM [rising, single point]","23.1 µM [rising, single point]"
COc1cc(NC(=S)NC(=O)c2ccc(F)cc2)ccc1NC(=O)c1ccco1,-9.01%,"0.164 µM [rising, full curve, poor fit]",
CC(CN(C(N)=O)c1ccccc1O)C(=O)O (stereo not drawn),15.6%,"29.1 µM [falling, single point]",
